Data: paper PMC6995195
No constants are given. Whether binding was seen depends on the method and setting. In cells and extracts the contact can be indirect. Some binding calls cover weakened binding; strength is not graded here. For some of these results: Sequences can lack the tags named with a protein.

Sequences of proteins named here, by UniProt entry; tags and fusion partners are left off.
UniProt P49915: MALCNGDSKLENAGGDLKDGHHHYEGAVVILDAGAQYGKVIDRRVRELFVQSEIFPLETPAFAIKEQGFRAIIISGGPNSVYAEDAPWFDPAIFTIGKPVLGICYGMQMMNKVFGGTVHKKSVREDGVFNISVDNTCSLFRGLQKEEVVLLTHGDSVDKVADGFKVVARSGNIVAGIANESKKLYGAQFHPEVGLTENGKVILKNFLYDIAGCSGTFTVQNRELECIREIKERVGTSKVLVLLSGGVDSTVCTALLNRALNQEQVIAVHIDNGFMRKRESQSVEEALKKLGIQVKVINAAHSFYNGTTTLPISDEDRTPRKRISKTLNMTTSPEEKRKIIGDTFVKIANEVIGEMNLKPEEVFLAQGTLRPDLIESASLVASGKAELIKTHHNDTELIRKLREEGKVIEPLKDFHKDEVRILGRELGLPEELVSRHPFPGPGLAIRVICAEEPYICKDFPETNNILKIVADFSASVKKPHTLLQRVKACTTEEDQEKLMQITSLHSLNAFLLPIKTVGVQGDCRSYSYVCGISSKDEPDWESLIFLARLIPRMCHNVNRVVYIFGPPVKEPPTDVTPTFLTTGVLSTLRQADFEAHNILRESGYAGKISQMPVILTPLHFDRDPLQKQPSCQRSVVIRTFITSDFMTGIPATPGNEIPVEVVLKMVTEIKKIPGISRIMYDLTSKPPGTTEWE
UniProt Q93009: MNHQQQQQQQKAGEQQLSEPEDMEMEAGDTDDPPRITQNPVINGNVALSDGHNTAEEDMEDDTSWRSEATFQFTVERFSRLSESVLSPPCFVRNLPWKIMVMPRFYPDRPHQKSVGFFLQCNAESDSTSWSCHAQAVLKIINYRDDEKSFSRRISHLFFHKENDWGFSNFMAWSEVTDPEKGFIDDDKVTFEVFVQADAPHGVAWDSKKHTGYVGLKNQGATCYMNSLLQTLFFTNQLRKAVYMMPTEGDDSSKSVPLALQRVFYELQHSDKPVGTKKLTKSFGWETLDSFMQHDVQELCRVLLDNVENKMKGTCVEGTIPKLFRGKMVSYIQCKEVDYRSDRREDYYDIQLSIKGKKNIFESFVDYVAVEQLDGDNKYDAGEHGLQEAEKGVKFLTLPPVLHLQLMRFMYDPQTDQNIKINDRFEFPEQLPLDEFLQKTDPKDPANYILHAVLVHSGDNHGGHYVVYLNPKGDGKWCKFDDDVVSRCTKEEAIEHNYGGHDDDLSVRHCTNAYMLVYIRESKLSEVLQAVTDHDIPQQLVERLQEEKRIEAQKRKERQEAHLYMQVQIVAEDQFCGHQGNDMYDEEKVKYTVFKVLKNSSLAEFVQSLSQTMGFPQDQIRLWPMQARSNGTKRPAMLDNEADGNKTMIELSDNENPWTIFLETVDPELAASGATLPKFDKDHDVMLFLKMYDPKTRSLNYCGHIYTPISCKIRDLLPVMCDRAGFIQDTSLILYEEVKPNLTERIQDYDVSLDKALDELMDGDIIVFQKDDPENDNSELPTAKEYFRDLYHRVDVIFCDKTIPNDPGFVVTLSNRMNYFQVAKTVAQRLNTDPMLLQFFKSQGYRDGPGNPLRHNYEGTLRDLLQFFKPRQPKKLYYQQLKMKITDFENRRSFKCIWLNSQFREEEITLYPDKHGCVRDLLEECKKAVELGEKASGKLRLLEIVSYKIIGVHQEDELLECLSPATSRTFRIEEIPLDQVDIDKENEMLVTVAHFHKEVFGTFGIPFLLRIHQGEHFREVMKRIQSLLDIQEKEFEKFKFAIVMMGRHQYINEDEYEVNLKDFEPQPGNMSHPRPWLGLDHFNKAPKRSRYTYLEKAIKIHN

Legend:
[1] = molecular target: GMPS–FLAG (guanine monophosphate synthase, FLAG-tagged) (UniProt P49915); experiment: co-IP; NPC cells (HONE1) with ectopic expression of SERPINB5, TRIM21 or GMPS, MG132 10 μM for 24 h; lysate incubated with tag antibody (anti-FLAG, anti-MYC or anti-HA) at 4 °C overnight, protein A/G agarose, western blot; cells with or without X-ray radiation (6 Gy); some panels in TRIM21 LOF or SERPINB5 LOF (CRISPR knockout) cells
[2] = molecular target: T1, SERPINB5–HA (serpin family B member 5, HA-tagged) (UniProt P36952); experiment: as above
T1 sequence: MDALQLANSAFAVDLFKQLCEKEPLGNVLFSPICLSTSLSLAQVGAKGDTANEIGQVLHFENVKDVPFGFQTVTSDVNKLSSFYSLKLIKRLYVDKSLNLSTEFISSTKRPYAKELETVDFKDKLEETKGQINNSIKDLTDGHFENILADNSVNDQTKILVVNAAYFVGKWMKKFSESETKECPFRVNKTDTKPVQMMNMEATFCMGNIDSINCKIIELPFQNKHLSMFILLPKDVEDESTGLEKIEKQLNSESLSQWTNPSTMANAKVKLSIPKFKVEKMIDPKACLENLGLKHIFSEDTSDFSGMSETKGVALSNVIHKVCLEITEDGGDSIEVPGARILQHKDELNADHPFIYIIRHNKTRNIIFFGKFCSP

| binding [1] | Substance | binding [2] |
| --- | --- | --- |
| binds | USP7, endogenous (from UniProt Q93009 1-1102) | – |
| – | GMPS (guanine monophosphate synthase), endogenous (from UniProt P49915 1-693) | binds |
| – | GMPS–FLAG (guanine monophosphate synthase, FLAG-tagged) (from UniProt P49915 1-693) | binds |
| binds | TP53, endogenous (from UniProt P04637 1-393) | – |
